From article PMC8486766
Results are given in words; binding and its absence hold for the method and conditions named. Binding seen in cells or lysates may run through a third protein.

Biological target: FLAG-tagged full-length (FL) MeCP2 (human) (UniProt P51608)
Assay: co-IP; FLAG M2 agarose, HMW extract (Benzonase-treated) of HEK293T cells expressing FLAG-MeCP2, 4 °C 3 h, washes with 300 mM NaCl and 0.1% NP-40; western blot

- binding: no binding
Substance: hnRNP K (from UniProt P61978 1-463)
